# Source: PubChem BioAssay
# What follows is the remainder of the data, with few or none of the hits. Active and inactive are the calls of the source.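 How the source made its calls: active means fitted curve reaches a 35% signal fall AC35 below twice the sample's top valid tested dose (actives reach about 48 µM in these data); inactive means the rest, including activity in the rising direction.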
# Test: DNA binders by acridine orange displacement, dose response, counter-screen for EWS/Fli inhibitor project, biochemical, fluorescence polarization, cherry-pick (AID 720586);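 further: 0% = neutral control median and -100% = 10 µM mitoxantrone control median; lower polarization ratio signals compound binding to DNA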
# Details: salmon sperm DNA acridine orange fluorescence polarization; at 68 µM (top of the series)
structure (smiles),measurement,value
O=S(=O)(c1ccc2nc(SCc3cccc(Cl)c3)[nH]c2c1)N1CCOCC1,"activity change, negative = DNA binding",inactive: -1.52%
